Experimental data: the M2OR odorant receptor database
Where a chain is given by its changes, count along the chain named. The entries are a selection whose mix differs from that of the whole data set. Calls are pooled over several reports, among them a noisy single-well screen. The list shows a part of the results.

Chains of the proteins cited; added tags and fusions are not shown. Chains listed by the source or under a name are the forms on record and can include a tag or linker.
OR1E2, as listed by the source: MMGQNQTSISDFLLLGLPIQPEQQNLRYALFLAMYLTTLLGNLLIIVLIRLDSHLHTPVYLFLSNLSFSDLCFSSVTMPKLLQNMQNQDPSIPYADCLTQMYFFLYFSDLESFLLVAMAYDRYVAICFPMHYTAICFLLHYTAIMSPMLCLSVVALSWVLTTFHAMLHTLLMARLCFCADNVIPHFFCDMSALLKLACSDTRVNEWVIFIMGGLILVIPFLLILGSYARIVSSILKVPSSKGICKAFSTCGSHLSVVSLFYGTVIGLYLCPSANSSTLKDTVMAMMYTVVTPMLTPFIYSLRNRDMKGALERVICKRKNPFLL

Key:
Details in all cases: stereoisomer not certain
[1] = biological target: T1, OR1D5 (Homo sapiens) (UniProt P58170)
T1 sequence (whole entry): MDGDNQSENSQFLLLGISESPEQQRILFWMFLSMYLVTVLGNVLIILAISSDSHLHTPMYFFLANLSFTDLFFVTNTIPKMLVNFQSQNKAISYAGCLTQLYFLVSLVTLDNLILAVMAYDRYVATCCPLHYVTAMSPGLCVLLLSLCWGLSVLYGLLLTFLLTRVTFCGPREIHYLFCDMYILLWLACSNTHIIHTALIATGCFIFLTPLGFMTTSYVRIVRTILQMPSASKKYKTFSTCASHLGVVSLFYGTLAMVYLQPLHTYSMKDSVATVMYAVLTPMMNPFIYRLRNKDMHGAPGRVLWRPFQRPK
How it was run: (§1)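 Values were gathered from published papers (main text and supplementary material), with extra details requested from the original authors when needed, and checked for typos and inconsistencies. Each receptor–molecule pair is called responsive (active) if the original authors judged the measured signal statistically different from baseline, and non-responsive (inactive) otherwise. Assay methods varied by source, often transient mammalian cell-line luciferase assays. Recorded details include cell line, G-protein, co-transfected protein and tags.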

[2] = system: T2, OR1D5
T2 sequence (whole entry): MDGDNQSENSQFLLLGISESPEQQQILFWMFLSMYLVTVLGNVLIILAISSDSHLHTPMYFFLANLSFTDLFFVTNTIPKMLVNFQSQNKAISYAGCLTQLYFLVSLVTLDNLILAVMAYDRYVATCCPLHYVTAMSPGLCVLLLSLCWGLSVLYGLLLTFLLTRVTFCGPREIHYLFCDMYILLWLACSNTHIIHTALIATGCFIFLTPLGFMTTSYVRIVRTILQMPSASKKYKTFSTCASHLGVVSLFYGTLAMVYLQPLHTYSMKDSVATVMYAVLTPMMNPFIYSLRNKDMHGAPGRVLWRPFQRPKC
How it was run: as §1

[3] = system: T3, OR1E1
T3 sequence (whole entry): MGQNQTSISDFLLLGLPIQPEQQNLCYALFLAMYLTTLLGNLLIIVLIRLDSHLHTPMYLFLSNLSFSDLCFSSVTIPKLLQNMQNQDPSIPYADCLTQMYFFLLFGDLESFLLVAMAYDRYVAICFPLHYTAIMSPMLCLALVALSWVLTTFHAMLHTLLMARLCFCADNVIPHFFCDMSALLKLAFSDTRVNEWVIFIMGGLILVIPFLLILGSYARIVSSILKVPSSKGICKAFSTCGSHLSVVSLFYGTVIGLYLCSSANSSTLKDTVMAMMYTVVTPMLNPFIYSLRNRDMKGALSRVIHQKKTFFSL
How it was run: as §1

[4] = system: T4, OR1E1; remark: listed apart in the source
T4 sequence (whole entry): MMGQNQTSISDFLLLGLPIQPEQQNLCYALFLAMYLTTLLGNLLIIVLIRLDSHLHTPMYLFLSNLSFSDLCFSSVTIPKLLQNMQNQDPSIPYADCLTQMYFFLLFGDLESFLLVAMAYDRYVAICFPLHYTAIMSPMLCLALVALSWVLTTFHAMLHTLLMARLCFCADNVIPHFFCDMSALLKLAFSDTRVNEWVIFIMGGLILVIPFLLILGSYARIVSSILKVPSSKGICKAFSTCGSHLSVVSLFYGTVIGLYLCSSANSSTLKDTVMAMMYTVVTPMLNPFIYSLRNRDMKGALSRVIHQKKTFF
How it was run: as §1

[5] = biological target: T5, OR1E2 (Homo sapiens) (UniProt P47887)
T5 sequence (whole entry): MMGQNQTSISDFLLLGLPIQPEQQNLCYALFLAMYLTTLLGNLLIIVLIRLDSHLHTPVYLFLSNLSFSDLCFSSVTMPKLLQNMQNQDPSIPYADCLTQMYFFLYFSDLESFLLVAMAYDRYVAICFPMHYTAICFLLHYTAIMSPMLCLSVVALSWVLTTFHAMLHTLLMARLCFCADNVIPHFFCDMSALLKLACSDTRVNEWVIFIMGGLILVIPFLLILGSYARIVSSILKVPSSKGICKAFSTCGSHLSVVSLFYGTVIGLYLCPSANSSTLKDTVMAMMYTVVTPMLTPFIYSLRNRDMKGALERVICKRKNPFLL
How it was run: as §1

[6] = system: T6, OR1E2
T6 sequence (whole entry): T5 sequence (whole entry) with C27R
How it was run: as §1

[7] = system: T7, OR1F1
T7 sequence (whole entry): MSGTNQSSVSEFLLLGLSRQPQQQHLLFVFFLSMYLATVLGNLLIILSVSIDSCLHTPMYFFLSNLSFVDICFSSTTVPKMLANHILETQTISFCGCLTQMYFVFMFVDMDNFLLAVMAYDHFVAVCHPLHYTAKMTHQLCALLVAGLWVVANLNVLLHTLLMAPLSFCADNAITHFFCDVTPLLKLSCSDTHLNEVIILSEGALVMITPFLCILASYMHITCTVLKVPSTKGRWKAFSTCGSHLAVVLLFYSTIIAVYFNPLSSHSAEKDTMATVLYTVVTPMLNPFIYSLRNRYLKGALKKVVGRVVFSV
How it was run: as §1

[8] = system: T8, OR1FC
T8 sequence (whole entry): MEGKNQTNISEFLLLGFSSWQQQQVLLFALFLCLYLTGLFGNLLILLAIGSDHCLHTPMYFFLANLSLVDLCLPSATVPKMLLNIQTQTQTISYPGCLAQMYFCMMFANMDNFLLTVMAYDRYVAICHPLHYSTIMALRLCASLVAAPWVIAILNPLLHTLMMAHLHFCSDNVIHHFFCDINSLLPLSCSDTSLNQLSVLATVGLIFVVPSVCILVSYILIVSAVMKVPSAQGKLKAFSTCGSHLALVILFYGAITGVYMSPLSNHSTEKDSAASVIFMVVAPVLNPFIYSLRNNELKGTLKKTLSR
How it was run: as §1

[9] = biological target: T9, OR1G1 (Homo sapiens) (UniProt P47890)
T9 sequence (whole entry): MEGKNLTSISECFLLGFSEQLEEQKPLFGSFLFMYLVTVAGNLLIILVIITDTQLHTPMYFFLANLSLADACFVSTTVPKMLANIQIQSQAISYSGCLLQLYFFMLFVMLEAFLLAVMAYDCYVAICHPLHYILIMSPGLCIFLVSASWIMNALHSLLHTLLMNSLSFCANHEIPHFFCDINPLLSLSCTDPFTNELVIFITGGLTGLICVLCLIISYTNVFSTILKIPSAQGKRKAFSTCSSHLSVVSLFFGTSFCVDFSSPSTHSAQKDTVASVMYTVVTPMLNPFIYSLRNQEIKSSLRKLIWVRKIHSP
How it was run: as §1

[10] = system: T10, OR1I1
T10 sequence (whole entry): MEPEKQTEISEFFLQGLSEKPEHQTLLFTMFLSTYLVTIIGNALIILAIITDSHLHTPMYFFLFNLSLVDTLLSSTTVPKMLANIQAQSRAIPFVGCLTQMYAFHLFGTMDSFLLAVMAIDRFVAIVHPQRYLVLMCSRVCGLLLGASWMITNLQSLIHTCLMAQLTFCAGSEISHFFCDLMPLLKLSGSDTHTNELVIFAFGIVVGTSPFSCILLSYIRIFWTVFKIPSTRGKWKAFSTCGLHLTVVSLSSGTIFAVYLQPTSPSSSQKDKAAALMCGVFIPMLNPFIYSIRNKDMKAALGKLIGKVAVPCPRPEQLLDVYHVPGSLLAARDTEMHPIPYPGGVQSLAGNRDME
How it was run: as §1

[11] = biological target: T11, OR1J1 (Homo sapiens) (UniProt Q8NGS3)
T11 sequence (whole entry): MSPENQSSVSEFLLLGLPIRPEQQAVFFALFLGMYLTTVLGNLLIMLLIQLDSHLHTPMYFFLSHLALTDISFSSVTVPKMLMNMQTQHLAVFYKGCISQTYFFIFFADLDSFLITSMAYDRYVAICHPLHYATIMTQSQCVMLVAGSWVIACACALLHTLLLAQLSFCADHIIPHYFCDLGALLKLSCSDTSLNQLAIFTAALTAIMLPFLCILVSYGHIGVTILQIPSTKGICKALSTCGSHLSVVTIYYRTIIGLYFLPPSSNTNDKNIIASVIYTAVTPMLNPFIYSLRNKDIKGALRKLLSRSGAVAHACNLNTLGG
How it was run: as §1

[12] = biological target: T12, OR1J2 (Homo sapiens) (UniProt Q8NGS2)
T12 sequence (whole entry): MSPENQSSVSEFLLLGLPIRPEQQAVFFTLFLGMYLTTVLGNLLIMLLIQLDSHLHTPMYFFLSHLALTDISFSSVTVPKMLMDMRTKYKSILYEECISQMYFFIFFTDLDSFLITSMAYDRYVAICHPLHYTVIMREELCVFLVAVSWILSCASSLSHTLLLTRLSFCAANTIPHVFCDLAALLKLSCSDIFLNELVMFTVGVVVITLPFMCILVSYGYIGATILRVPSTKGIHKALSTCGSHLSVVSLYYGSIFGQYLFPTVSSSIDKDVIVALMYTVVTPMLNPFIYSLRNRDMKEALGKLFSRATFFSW
How it was run: as §1

[13] = biological target: T13, OR1J4 (Homo sapiens) (UniProt Q8NGS1)
T13 sequence (whole entry): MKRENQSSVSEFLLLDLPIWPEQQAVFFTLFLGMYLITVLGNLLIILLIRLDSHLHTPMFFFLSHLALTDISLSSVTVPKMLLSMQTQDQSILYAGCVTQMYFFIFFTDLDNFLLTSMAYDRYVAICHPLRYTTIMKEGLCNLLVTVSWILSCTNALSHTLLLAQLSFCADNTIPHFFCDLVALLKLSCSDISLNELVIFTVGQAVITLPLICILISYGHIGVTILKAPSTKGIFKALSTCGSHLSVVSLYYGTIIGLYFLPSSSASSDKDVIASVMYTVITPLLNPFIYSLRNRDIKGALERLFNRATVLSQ
How it was run: as §1

[14] = biological target: T14, OR1K1 (Homo sapiens) (UniProt Q8NGR3)
T14 sequence (whole entry): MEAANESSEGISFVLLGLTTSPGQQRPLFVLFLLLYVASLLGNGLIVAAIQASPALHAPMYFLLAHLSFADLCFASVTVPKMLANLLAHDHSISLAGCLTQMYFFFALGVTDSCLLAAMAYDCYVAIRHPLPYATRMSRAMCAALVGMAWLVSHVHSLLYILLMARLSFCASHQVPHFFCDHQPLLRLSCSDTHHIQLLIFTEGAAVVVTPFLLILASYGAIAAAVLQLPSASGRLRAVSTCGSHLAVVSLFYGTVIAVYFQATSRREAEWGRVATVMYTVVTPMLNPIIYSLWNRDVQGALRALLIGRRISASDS
How it was run: as §1

Measured: odorant receptor agonist call

C=CCSCC=C
inactive: [1] | [2] | [3] | [4] | [5] | [6] | [7] | [8] | [9] | [10] | [11] | [12] | [13] | [14]

CC12C=CCC1C1CCC3=CC(=O)CCC3(C)C1CC2 (stereo not given)
inactive: [1] | [2] | [3] | [4] | [5] | [6] | [7] | [8] | [9] | [10] | [11] | [12] | [13] | [14]

CC1=NC(C)SC1C (stereo not given)
inactive: [1] | [3] | [4] | [5] | [6] | [7] | [9] | [10] | [12] | [13] | [14]

COC(=O)c1ccccc1
inactive: [1] | [3] | [4] | [5] | [6] | [7] | [9] | [10] | [12] | [13] | [14]
